Experimental data published in patent US20030162221A1.
These are yes or no findings as the source states them, for the method shown. In cells and extracts the contact can be indirect. Some results given as binding are weak or reduced against the parent protein; the word gives no strength. Sequences can lack the tags named with a protein. Blank lines part the entries; values can stand above or below the binder they belong to.

Tests used:
[1] = target: T1, Hog1 (Saccharomyces cerevisiae) (UniProt P32485); assay: anti-FLAG co-IP, LC-MS/MS
T1 sequence (looked up): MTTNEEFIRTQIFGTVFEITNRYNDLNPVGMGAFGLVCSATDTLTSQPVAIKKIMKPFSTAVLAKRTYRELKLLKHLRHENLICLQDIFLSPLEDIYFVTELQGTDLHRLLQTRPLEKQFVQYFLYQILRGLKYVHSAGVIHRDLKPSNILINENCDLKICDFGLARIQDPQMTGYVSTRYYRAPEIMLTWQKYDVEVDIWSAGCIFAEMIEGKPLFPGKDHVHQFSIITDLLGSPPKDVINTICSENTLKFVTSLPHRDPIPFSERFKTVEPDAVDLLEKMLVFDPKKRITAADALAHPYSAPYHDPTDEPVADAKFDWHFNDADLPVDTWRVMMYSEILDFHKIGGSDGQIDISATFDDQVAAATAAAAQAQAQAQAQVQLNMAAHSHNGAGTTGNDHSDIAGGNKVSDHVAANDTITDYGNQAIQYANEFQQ

[2] = target: T2, Dun1 (Saccharomyces cerevisiae) (UniProt P39009); assay: anti-FLAG co-IP, LC-MS/MS
T2 sequence (looked up): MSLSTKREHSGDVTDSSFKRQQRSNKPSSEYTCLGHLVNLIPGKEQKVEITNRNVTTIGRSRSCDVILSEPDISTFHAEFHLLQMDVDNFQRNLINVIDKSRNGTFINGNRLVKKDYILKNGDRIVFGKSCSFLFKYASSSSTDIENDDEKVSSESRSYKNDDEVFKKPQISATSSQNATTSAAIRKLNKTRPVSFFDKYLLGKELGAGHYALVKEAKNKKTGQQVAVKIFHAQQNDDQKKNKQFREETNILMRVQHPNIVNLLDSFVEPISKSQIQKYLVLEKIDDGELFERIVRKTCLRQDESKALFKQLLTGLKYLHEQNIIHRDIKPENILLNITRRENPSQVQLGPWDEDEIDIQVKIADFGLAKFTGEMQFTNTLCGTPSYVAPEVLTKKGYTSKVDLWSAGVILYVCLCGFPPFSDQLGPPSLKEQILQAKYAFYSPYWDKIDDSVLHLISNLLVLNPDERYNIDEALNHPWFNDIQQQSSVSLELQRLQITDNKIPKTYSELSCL

[3] = target: T3, Mre11 (Saccharomyces cerevisiae) (UniProt P32829); assay: anti-FLAG co-IP, LC-MS/MS
T3 sequence (looked up): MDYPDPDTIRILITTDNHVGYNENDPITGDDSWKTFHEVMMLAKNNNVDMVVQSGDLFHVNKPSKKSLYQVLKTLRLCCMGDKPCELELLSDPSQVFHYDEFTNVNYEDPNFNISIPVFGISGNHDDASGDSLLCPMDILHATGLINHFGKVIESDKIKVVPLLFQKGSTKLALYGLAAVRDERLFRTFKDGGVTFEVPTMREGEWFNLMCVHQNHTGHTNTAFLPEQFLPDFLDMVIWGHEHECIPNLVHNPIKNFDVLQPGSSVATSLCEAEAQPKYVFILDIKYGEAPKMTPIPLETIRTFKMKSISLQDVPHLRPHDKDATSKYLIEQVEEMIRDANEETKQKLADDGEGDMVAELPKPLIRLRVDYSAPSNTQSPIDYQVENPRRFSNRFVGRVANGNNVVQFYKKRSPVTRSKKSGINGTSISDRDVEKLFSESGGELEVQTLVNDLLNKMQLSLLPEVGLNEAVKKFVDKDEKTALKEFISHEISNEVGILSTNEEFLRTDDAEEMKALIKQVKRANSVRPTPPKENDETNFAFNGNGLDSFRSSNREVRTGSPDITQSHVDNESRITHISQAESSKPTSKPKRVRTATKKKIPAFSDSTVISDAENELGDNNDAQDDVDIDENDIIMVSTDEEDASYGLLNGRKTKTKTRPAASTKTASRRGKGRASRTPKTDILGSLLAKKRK

[4] = target: T4, Xrs2 (Saccharomyces cerevisiae) (UniProt P33301); assay: anti-FLAG co-IP, LC-MS/MS
T4 sequence (looked up): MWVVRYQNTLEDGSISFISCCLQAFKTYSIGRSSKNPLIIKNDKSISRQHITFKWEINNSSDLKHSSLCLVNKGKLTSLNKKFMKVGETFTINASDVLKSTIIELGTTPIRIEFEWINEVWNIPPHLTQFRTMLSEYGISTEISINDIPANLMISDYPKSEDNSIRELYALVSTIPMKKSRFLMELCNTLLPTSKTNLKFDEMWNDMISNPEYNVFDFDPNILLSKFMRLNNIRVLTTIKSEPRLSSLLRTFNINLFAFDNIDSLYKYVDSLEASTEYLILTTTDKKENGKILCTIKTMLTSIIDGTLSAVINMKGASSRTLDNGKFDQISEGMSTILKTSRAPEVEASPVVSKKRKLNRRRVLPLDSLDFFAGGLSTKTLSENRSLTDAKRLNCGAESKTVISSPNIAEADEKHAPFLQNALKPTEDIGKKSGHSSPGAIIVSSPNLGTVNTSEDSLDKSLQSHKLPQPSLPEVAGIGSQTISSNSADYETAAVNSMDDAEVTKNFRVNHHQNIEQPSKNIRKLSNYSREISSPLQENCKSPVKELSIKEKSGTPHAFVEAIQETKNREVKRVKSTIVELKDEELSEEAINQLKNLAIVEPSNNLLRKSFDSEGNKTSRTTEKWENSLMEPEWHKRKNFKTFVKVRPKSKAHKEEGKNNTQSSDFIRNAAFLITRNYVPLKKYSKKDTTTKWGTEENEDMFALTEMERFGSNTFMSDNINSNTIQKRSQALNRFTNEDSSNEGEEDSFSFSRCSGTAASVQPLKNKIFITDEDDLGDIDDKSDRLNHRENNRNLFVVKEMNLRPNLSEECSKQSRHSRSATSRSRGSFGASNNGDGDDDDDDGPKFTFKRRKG

[5] = target: T3, Mre11 (Saccharomyces cerevisiae); assay: anti-FLAG co-IP, LC-MS/MS; pair by Table 2
[6] = target: T4, Xrs2 (Saccharomyces cerevisiae); assay: anti-FLAG co-IP, LC-MS/MS; pair by Table 2
[7] = target: T2, Dun1 (Saccharomyces cerevisiae); assay: anti-FLAG co-IP, LC-MS/MS; Dun1 was the prey by Table 2

binding [1]: binds
B1: Rck2 (protein, Saccharomyces cerevisiae, UniProt P38623 1-610, looked up)
chain: MLKIKALFSKKKPDQADLSQESKKPFKGKTRSSGTNNKDVSQITSSPKKSFQDKNIVQYPSVVADDHHMKSLTDELVTTIDSDSSPSDNITTENVETVTSVPAIDVHESSEGQLSSDPLISDESLSEQSEIISDIQDDSTDDDNMEDEIPEKSFLEQKELIGYKLINKIGEGAFSKVFRAIPAKNSSNEFLTKNYKAVAIKVIKKADLSSINGDHRKKDKGKDSTKTSSRDQVLKEVALHKTVSAGCSQIVAFIDFQETDSYYYIIQELLTGGEIFGEIVRLTYFSEDLSRHVIKQLALAVKHMHSLGVVHRDIKPENLLFEPIEFTRSIKPKLRKSDDPQTKADEGIFTPGVGGGGIGIVKLADFGLSKQIFSKNTKTPCGTVGYTAPEVVKDEHYSMKVDMWGIGCVLYTMLCGFPPFYDEKIDTLTEKISRGEYTFLKPWWDEISAGAKNAVAKLLELEPSKRYDIDQFLDDPWLNTFDCLPKEGESSQKKAGTSERRHPHKKQFQLFQRDSSLLFSPAAVAMRDAFDIGNAVKRTEEDRMGTRGGLGSLAEDEELEDSYSGAQGDEQLEQNMFQLTLDTSTILQRRKKVQENDVGPTIPISATIRE

binding [2]: binds
binding [3]: binds
binding [4]: binds
binding [5]: binds
binding [6]: binds
binding [7]: binds
B2: Rad50 (protein, Saccharomyces cerevisiae, UniProt P12753 1-1312, looked up)
chain: MSAIYKLSIQGIRSFDSNDRETIEFGKPLTLIVGMNGSGKTTIIECLKYATTGDLPPNSKGGVFIHDPKITGEKDIRAQVKLAFTSANGLNMIVTRNIQLLMKKTTTTFKTLEGQLVAINNSGDRSTLSTRSLELDAQVPLYLGVPKAILEYVIFCHQEDSLWPLSEPSNLKKKFDEIFQAMKFTKALDNLKSIKKDMSVDIKLLKQSVEHLKLDKDRSKAMKLNIHQLQTKIDQYNEEVSEIESQLNEITEKSDKLFKSNQDFQKILSKVENLKNTKLSISDQVKRLSNSIDILDLSKPDLQNLLANFSKVLMDKNNQLRDLETDISSLKDRQSSLQSLSNSLIRRQGELEAGKETYEKNRNHLSSLKEAFQHKFQGLSNIENSDMAQVNHEMSQFKAFISQDLTDTIDQFAKDIQLKETNLSDLIKSITVDSQNLEYNKKDRSKLIHDSEELAEKLKSFKSLSTQDSLNHELENLKTYKEKLQSWESENIIPKLNQKIEEKNNEMIILENQIEKFQDRIMKTNQQADLYAKLGLIKKSINTKLDELQKITEKLQNDSRIRQVFPLTQEFQRADLEMDFQKLFINMQKNIAINNKKMHELDRRYTNALYNLNTIEKDLQDNQKSKEKVIQLLSENLPEDCTIDEYNDVLEETELSYKTALENLKMHQTTLEFNRKALEIAERDSCCYLCSRKFENESFKSKLLQELKTKTDANFEKTLKDTVQNEKEYLHSLRLLEKHIITLNSINEKIDNSQKCLEKAKEETKTSKSKLDELEVDSTKLKDEKELAESEIRPLIEKFTYLEKELKDLENSSKTISEELSIYNTSEDGIQTVDELRDQQRKMNDSLRELRKTISDLQMEKDEKVRENSRMINLIKEKELTVSEIESSLTQKQNIDDSIRSKRENINDIDSRVKELEARIISLKNKKDEAQSVLDKVKNERDIQVRNKQKTVADINRLIDRFQTIYNEVVDFEAKGFDELQTTIKELELNKAQMLELKEQLDLKSNEVNEEKRKLADSNNEEKNLKQNLELIELKSQLQHIESEISRLDVQNAEAERDKYQEESLRLRTRFEKLSSENAGKLGEMKQLQNQIDSLTHQLRTDYKDIEKNYHKEWVELQTRSFVTDDIDVYSKALDSAIMKYHGLKMQDINRIIDELWKRTYSGTDIDTIKIRSDEVSSTVKGKSYNYRVVMYKQDVELDMRGRCSAGQKVLASIIIRLALSETFGANCGVIALDEPTTNLDEENIESLAKSLHNIINMRRHQKNFQLIVITHDEKFLGHMNAAAFTDHFFKVKRDDRQKSQIEWVDINRVTY
